Results from EP3839043A1, “SCREENING METHODS FOR COMPOUNDS MODULATING POLYAMINE TRANSPORT” (Katholieke Universiteit Leuven, priority 2019, dated 2021).

Key:
Microsomal ATP13A2 = molecular target: T1, Microsomal ATP13A2 (Homo sapiens, UniProt Q9NQ11); assay: ATPase assay (ADP-Glo Max), solubilized microsomes of SH-SY5Y cells overexpressing ATP13A2 WT; type: biochemical; conditions: indicated doses; microsomes 5 µg
T1 construct: expressed in transfected cells; host or cells: SH-SY5Y human neuroblastoma cells, lentiviral transduction; microsomes solubilised with DDM
T1 sequence (Q9NQ11 1-1175 isoform Q9NQ11-3): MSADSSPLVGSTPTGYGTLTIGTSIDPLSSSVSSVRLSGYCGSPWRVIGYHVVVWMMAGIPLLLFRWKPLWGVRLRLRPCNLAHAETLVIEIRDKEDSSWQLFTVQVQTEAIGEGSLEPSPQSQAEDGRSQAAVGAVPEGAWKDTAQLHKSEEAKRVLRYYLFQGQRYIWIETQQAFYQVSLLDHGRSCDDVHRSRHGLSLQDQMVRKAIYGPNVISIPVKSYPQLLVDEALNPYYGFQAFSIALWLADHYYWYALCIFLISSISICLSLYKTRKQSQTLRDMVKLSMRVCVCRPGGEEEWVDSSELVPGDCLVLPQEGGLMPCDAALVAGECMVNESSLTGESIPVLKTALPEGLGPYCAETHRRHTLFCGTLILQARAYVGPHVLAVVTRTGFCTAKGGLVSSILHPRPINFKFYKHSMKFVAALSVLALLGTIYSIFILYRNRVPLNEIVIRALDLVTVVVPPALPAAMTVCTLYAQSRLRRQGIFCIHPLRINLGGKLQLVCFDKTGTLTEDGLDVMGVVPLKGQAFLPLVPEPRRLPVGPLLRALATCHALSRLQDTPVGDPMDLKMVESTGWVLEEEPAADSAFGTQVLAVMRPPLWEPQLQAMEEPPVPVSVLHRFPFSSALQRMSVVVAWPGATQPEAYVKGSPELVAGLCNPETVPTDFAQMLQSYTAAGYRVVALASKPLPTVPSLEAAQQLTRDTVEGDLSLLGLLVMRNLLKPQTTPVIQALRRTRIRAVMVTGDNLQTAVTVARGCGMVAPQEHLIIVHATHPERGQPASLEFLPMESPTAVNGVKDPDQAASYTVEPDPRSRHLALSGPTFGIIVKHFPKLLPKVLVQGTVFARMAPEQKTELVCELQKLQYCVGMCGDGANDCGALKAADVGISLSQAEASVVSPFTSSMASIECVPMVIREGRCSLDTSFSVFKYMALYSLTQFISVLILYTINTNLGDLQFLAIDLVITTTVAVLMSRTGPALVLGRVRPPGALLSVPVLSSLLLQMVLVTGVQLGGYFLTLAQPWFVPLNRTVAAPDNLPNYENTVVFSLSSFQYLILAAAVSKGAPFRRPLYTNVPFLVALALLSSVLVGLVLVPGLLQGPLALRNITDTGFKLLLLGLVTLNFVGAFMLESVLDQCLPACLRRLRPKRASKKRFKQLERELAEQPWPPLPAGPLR
Description: Membrane fractionation - Transduced SH-SY5Y cells were seeded in […] at a density of 6 x 10^6 cells per plate. 24 h later, the cells were harvested following trypsinization and brief centrifugation (300 x g, 5 min). Subcellular fractionation was performed by differential centrifugation. The microsomal protein concentration was measured using the bicinchoninic acid assay (Thermo Fischer Scientific, Pierce) according to the manufacturer's instructions.
ATPase assay - The ATPase activity of ATP13A2 was assessed using a commercially available luminescence assay (ADP-Glo Max assay, Promega) that monitors the production of ADP via luciferase activity. The reactions were performed for 30 min (37°C) in a final volume of 25 µl. […] The assay was started by the addition of 5 mM ATP and was terminated by adding 25 µl of ADP-Glo Reagent. The 96-well plate was then incubated for 40 min at room temperature, followed by the addition of 50 µl of ADP-Glo Max Detection Reagent. After 40 min, luminescence was detected using a FlexStation 3.0 system (Molecular Devices). Dose-response curves and n/Km/Vmax values were calculated using GraphPad Prism Software (GraphPad Software Inc.).

ATP13A2 = ATP13A2 (Homo sapiens, UniProt Q9NQ11); conditions: WT-OE microsomes 20 µg, 60 s with [γ-32P] ATP
Description: PLoS One 13, e0193228, (2018)].
In case of purified ATP13A2, 125 µM PA and 125 µM PI(3,5)P2 were included in the reaction mixture. To determine the sensitivity of the ATP13A2 phosphoenzyme to ATP or a combination of ATP and SPM, 30 s after adding ^32P-ATP, samples were incubated with non-radioactive ATP (5 mM in experiments using microsomes, 1 mM when purified ATP13A2 was used) and SPM (1 mM) before the reaction was stopped at indicated time points. The incorporation of ^32P was visualized following SDS-PAGE under acidic conditions and subsequently detected by autoradiography (microsomes) or liquid scintillation counting (purified ATP13A2) (Liquid Scintillation Analyzer TRI-CARB 2900TR).

SH-SY5Y cells = assay: MUH cytotoxicity assay; type: cell-based, human; conditions: increasing concentrations, 24 h
Description: MUH cytotoxicity assay - SH-SY5Y cells were seeded in 96-well plates (1 X 10^4 cells per well) and allowed to adhere overnight. The cells were subsequently treated with increasing doses of the indicated compounds for 24-48 h. Following exposure, the cells were washed with PBS and stained with 300 µg/ml MUH (prepared in DMSO, dissolved in PBS) for 30 min at 37°C.

**Q.** Cl.NCCC[C@H](N)C(=O)O [ornithine, L-ornithine monohydrochloride] was tested. Which “ATPase activity of ATP13A2, dose-response” value (Microsomal ATP13A2) did it give?
**A.** did not induce ATP13A2 activity

**Q.** And the ATP13A2 phospho-enzyme levels (ATP13A2)?
**A.** not seen

**Q.** And the “viability of control cells” value (SH-SY5Y cells)?
**A.** not cytotoxic
